# Source: PubChem BioAssay AID248 (DTP/NCI, 2004)
# The list does not hold the whole screen: it gathers tests that were run many times, whatever their T/C, doses with no T/C, and many T/C values between a quarter and a half above the control. Other doses and runs of a compound stand elsewhere. T/C is the treated group as % of the vehicle group. Some entries give survivors of the animals treated and no T/C: the source holds a T/C of zero for them, seemingly a mark for toxic or unscored doses. Some doses without a T/C left all or most animals alive at the check, yet need not have been tolerated: the source hardly ever lists a survival T/C far under the control, and the zero likely stands for such cases as well. Survivors were counted at the toxicity check, usually on the fifth day, unless a day is given; later deaths do not show. Schedules are NCI's codes, read here as Q, the interval in days (D) or hours (H), X, the number of doses. Some structures stand for samples that the source files as different forms (salt, stereo form or complex); doses refer to the form tested. Some schedules carry Z or #; the key to these is not given. Some entries were tested several times; the values are given in rising order. Where survival is the endpoint, this PubChem deposit counts one and a half times the control or more as active, and values a quarter to a half above the control carry no call in these data; other NCI protocols may use other cut-offs.
# Test system: L1210 leukemia ip in BDF1 mice, survival T/C
# Assay: NCI In Vivo Anticancer Drug Screen. Data for tumor model L1210 Leukemia (intraperitoneal) in B6D2F1 (BDF1) mice
# Details: T/C endpoint: mean survival time, higher T/C = longer survival
# [1] = dose: 100.0 mg/kg/injection, schedule: Q01DX001 (ip), vehicle: carboxymethylcellulose (CMC)
# [2] = dose: 200.0 mg/kg/injection, schedule: Q01DX001 (ip), vehicle: carboxymethylcellulose (CMC)
# [3] = dose: 400.0 mg/kg/injection, schedule: Q01DX001 (ip), vehicle: carboxymethylcellulose (CMC)
# [4] = dose: 200.0 mg/kg/injection, schedule: Q04DX003 (ip), vehicle: saline with Tween-80
# [5] = dose: 400.0 mg/kg/injection, schedule: Q04DX003 (ip), vehicle: saline with Tween-80
# [6] = dose: 400.0 mg/kg/injection, schedule: Q01DX001 (ip), vehicle: saline
# [7] = dose: 400.0 mg/kg/injection, schedule: Q04DX003 (ip), vehicle: saline
# [8] = dose: 100.0 mg/kg/injection, schedule: Q01DX009 (ip), vehicle: saline with Tween-80
# [9] = dose: 200.0 mg/kg/injection, schedule: Q01DX009 (ip), vehicle: saline with Tween-80
# [10] = dose: 100.0 mg/kg/injection, schedule: Q01DX009 (ip), vehicle: carboxymethylcellulose (CMC)
# [11] = dose: 200.0 mg/kg/injection, schedule: Q01DX009 (ip), vehicle: carboxymethylcellulose (CMC)
# [12] = dose: 400.0 mg/kg/injection, schedule: Q01DX009 (ip), vehicle: carboxymethylcellulose (CMC)
# [13] = dose: 200.0 mg/kg/injection, schedule: Q01DX009 (ip), vehicle: Klucel (hydroxypropylcellulose) (HPC)
# [14] = dose: 400.0 mg/kg/injection, schedule: Q01DX009 (ip), vehicle: Klucel (hydroxypropylcellulose) (HPC)
# [15] = dose: 75.0 mg/kg/injection, schedule: Q01DX001 (ip), vehicle: saline
# [16] = dose: 150.0 mg/kg/injection, schedule: Q01DX001 (ip), vehicle: saline
# [17] = dose: 300.0 mg/kg/injection, schedule: Q01DX001 (ip), vehicle: saline
structure (smiles),measurement,setting,value
Clc1ccnc2c1ccc1c(Cl)ccnc12,survivor count,[1],0 of 4
same,survivor count,[2],0 of 4
same,survivor count,[3],0 of 4
CCN1CCC(CNc2cc(C)nc(/N=C(\N)Nc3ccc(Cl)c(Cl)c3)n2)C1 (configuration not stated),survivor count,"dose: 100.0 mg/kg/injection, schedule: Q04DX003 (ip), vehicle: saline with Tween-80",3 of 6
same,survivor count,[4],1 of 6
same,survivor count,[5],0 of 6
N[n+]1cccc2ccccc21,survivor count,[6],3 of 6
same,survivor count,[7],0 of 6
CCN(CC)CCOc1ccc(C(C)(C)c2ccc(OCCN(CC)CC)cc2)cc1,survivor count,"dose: 400.0 mg/kg/injection, schedule: Q04DX002 (ip), vehicle: saline",0 of 3
COc1cc(C(=O)O)c(C(=O)O)cc1OC,survivor count,"dose: 100.0 mg/kg/injection, schedule: Q01DX001 (ip), vehicle: Klucel (hydroxypropylcellulose) (HPC)",6 of 6
same,survivor count,"dose: 200.0 mg/kg/injection, schedule: Q01DX001 (ip), vehicle: Klucel (hydroxypropylcellulose) (HPC)",6 of 6
CCc1c[c]([Hg][Cl])c(CC)c(CC)c1CC,survivor count,[8],0 of 6
same,survivor count,[9],0 of 6
same,survivor count,"dose: 400.0 mg/kg/injection, schedule: Q01DX009 (ip), vehicle: saline with Tween-80",0 of 6
CC1=CC(=O)C(c2ccc(O)cc2O)=CC1=O,survivor count,"dose: 150.0 mg/kg/injection, schedule: Q01DX001 (ip), vehicle: other",1 of 6
same,survivor count,"dose: 300.0 mg/kg/injection, schedule: Q01DX001 (ip), vehicle: other",0 of 6
C(#CCN1CCCC1)CCCN1CCCC1,survivor count,[4],0 of 6
same,survivor count,[5],0 of 6
ClCCN(CCCl)CCn1cnc2c(SCc3ccccc3)ncnc21,survivor count,"dose: 45.0 mg/kg/injection, schedule: Q01DX Z (ip), vehicle: carboxymethylcellulose (CMC)",0 of 6
same,survivor count,"dose: 67.0 mg/kg/injection, schedule: Q01DX Z (ip), vehicle: carboxymethylcellulose (CMC)",0 of 6 and 3 of 6
same,survivor count,"dose: 100.0 mg/kg/injection, schedule: Q01DX Z (ip), vehicle: carboxymethylcellulose (CMC)",0 of 6
same,survivor count,"dose: 150.0 mg/kg/injection, schedule: Q01DX Z (ip), vehicle: carboxymethylcellulose (CMC)",0 of 6
Cc1cc(NC(=O)Nc2ccc(Cl)c(C(F)(F)F)c2)no1,T/C,[10],"87, 91, 99 % of control"
same,survivor count,[10],3 of 3
same,T/C,[11],"86, 90, 93, 100 % of control"
same,survivor count,[12],3 of 3
c1ccc(CCSc2ncnc3nc[nH]c23)cc1,T/C,"dose: 150.0 mg/kg/injection, schedule: Q01DX009 (ip), vehicle: saline",130 % of control
same,T/C,"dose: 225.0 mg/kg/injection, schedule: Q01DX009 (ip), vehicle: saline",134 % of control
CC(C)(NCc1ccccc1)C(=O)c1ccccc1,survivor count,[13],6 of 6
same,survivor count,[3],1 of 4
same,survivor count,[14],3 of 6
CC1=CC23C(COC(=O)C24CO4)C(C(=O)O)=CC3C1C (configuration not stated) (tested in a mixture with another compound),survivor count,"dose: 5.0 mg/kg/injection, schedule: Q01DX001 (ip), vehicle: saline",2 of 6
same,survivor count,"dose: 10.0 mg/kg/injection, schedule: Q01DX001 (ip), vehicle: saline",0 of 6
same,survivor count,"dose: 20.0 mg/kg/injection, schedule: Q01DX001 (ip), vehicle: saline",0 of 6
same,survivor count,"dose: 40.0 mg/kg/injection, schedule: Q01DX001 (ip), vehicle: saline",0 of 6
same,survivor count,[15],0 of 6
same,survivor count,[16],0 of 6
same,survivor count,[17],0 of 6
O=S(=O)(Nc1cccc(C(F)(F)F)c1)c1cc(Cl)c(Cl)cc1Cl,survivor count,"dose: 50.0 mg/kg/injection, schedule: Q01DX009 (ip), vehicle: carboxymethylcellulose (CMC)",3 of 3
same,T/C,[10],"89, 90, 91, 101 % of control"
same,T/C,[11],90 and 93 % of control
same,survivor count,[11],3 of 3
same,T/C,[12],"86, 88, 90 % of control"
same,survivor count,[12],3 of 3
CCCCCCCCCCCC(=O)NC(=S)Nc1cccc(F)c1,survivor count,"dose: 400.0 mg/kg/injection, schedule: Q04DX003 (ip), vehicle: Klucel (hydroxypropylcellulose) (HPC)",0 of 6
Oc1ccc(C2CCCCCC2)cc1,survivor count,"dose: 50.0 mg/kg/injection, schedule: Q01DX001 (ip), vehicle: carboxymethylcellulose (CMC)",0 of 4
same,survivor count,[1],0 of 4
same,survivor count,[2],0 of 4
same,survivor count,[3],0 of 4
O=C(O)c1ccc2c(c1)C(=O)c1ccccc1C2=O,survivor count,"dose: 400.0 mg/kg/injection, schedule: Q04DX002 (ip), vehicle: saline with Tween-80",0 of 3
COc1ccc(C2C(=O)c3ccc(OC)c(OC)c3C2=O)cc1OC (configuration not stated),survivor count,[6],1 of 6
N/C(=N\OC(=O)Nc1cccc(Cl)c1)C(Cl)(Cl)Cl,survivor count,"dose: 100.0 mg/kg/injection, schedule: Q01DX009 (ip), vehicle: Klucel (hydroxypropylcellulose) (HPC)",1 of 6
same,survivor count,[13],0 of 6
same,survivor count,[14],0 of 6
Cn1c(Cl)nc2c(Cl)nc(Cl)nc21,survivor count,"dose: 25.0 mg/kg/injection, schedule: Q01DX009 (ip), vehicle: Klucel (hydroxypropylcellulose) (HPC)",3 of 6
same,survivor count,"dose: 50.0 mg/kg/injection, schedule: Q01DX009 (ip), vehicle: Klucel (hydroxypropylcellulose) (HPC)",0 of 6
C=COC(=O)N(C)C,survivor count,[6],2 of 6
CC(N)Cc1ccccc1 (configuration not stated),T/C,"dose: 9.37 mg/kg/injection, schedule: Q04DX003 (ip), vehicle: saline",136 % of control
same,survivor count,"dose: 74.96 mg/kg/injection, schedule: Q03HX024 (ip), vehicle: saline",1 of 6
same,survivor count,[15],3 of 6
same,survivor count,"dose: 75.0 mg/kg/injection, schedule: Q01DX009 (ip), vehicle: saline",5 of 6
same,survivor count,"dose: 100.0 mg/kg/injection, schedule: Q01DX009 (ip), vehicle: saline",5 of 6
same,survivor count,"dose: 149.92 mg/kg/injection, schedule: Q03HX024 (ip), vehicle: saline",0 of 6
same,survivor count,[16],0 of 6
same,survivor count,"dose: 150.0 mg/kg/injection, schedule: Q04DX003 (ip), vehicle: saline",0 of 4
same,survivor count,"dose: 200.0 mg/kg/injection, schedule: Q04DX003 (ip), vehicle: saline",0 of 4
same,survivor count,[17],0 of 6
same,survivor count,[7],0 of 4
Cc1cc(NC(=O)Nc2cccc(C3=NCCN3)c2)ccc1NC(=O)Nc1cccc(C2=NCCN2)c1,T/C,"dose: 120.0 mg/kg/injection, schedule: Q01DX Z (ip), vehicle: saline",138 % of control
CCOC(=O)c1c(NC(=O)CCl)ssc1=S,survivor count,[8],3 of 6
same,survivor count,[9],2 of 6
same,survivor count,"dose: 300.0 mg/kg/injection, schedule: Q01DX009 (ip), vehicle: saline with Tween-80",1 of 6
same,survivor count,[5],3 of 6
CCOC(=O)C(C#N)C(C(C)=O)C(=O)OCC (configuration not stated),survivor count,"dose: 200.0 mg/kg/injection, schedule: Q04DX003 (ip), vehicle: saline sonified",3 of 6
same,survivor count,"dose: 400.0 mg/kg/injection, schedule: Q04DX003 (ip), vehicle: saline sonified",4 of 6
C/C=C/C(=O)Nc1cccc(C(F)(F)F)c1,survivor count,"dose: 200.0 mg/kg/injection, schedule: Q01DX009 (ip), vehicle: other",6 of 6
same,survivor count,"dose: 400.0 mg/kg/injection, schedule: Q01DX009 (ip), vehicle: other",4 of 6
